Source: patent US10004732B2 (Novartis AG, priority 2014, dated 2018)

Amino acid sequences for entries named in this document (tags omitted). A change or cut given only in a name is not applied to a line headed by its entry.
UniProt P48736: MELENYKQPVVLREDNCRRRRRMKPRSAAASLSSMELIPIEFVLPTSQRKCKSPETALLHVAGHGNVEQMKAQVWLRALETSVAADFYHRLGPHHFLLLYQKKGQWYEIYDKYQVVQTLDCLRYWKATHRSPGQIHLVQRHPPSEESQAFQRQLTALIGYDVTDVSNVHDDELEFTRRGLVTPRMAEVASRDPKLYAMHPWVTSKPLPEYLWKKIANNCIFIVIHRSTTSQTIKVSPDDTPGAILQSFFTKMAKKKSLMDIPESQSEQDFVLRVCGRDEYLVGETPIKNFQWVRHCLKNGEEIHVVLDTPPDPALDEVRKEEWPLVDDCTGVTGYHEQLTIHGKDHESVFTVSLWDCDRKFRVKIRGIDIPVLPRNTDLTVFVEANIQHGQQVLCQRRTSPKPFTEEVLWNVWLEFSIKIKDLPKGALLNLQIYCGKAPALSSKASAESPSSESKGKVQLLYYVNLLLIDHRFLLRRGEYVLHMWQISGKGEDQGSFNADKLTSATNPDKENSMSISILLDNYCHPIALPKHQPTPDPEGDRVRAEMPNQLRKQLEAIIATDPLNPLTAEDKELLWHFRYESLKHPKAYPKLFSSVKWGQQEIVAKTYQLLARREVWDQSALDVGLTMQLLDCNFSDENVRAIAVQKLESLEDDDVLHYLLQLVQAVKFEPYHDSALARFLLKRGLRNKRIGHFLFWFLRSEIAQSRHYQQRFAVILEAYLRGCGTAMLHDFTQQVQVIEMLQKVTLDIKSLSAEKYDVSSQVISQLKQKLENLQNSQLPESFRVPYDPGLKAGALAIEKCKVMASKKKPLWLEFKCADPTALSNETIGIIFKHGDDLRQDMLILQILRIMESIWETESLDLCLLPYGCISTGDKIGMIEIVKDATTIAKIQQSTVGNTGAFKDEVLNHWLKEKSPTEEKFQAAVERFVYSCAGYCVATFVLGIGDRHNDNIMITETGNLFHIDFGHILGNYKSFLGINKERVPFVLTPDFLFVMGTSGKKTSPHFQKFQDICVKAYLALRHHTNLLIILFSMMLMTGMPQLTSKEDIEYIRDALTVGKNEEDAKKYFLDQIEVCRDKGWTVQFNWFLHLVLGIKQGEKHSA

Legend:
PI 3-kinase gamma [1] = target: T1, PI 3-kinase gamma (Homo sapiens, UniProt P48736); experiment: TR-FRET Adapta assay, assay E; type: biochemical; conditions: read-out: Assay E PI3Kγ IC50
PI 3-kinase gamma [2] = target: T1, PI 3-kinase gamma; experiment: Cellular U937 AKT assay K1 (MSD); type: cell-based; conditions: U937 cells, K1 format; read-out: Assay K1 PI3Kγ IC50
PI 3-kinase gamma [3] = target: T1, PI 3-kinase gamma; experiment: Cellular U937 AKT assay K2 (HTRF); type: cell-based; conditions: U937 cells, K2 format; read-out: Assay K2 PI3Kγ IC50

Cc1ccc(S(=O)(=O)NCC(C)(C)O)cc1-c1cnc(N)c(-n2cncn2)n1 [Example 6, 3-(5-Amino-6-(1H-1,2,4-triazol-1-yl)pyrazin-2-yl)-N-(2-hydroxy-2-methylpropyl)-4-methylbenzenesulfonamide]
IC50 (PI 3-kinase gamma [1]): 39 nM | IC50 (PI 3-kinase gamma [2]): 366 nM | IC50 (PI 3-kinase gamma [3]): 215 nM

Cc1ccc(S(=O)(=O)NCC(C)(C)O)cc1-c1cnc(N)c(-c2cnn(C)n2)n1 [Example 18, 3-[5-Amino-6-(2-methyl-2H-[1,2,3]triazol-4-yl)-pyrazin-2-yl]-N-(2-hydroxy-2-methyl-propyl)-4-methyl-benzenesulfonamide]
IC50 (PI 3-kinase gamma [1]): 31 nM | IC50 (PI 3-kinase gamma [2]): 145 nM | IC50 (PI 3-kinase gamma [3]): 207 nM
